# From the supplement of paper PMC10849652
# Chains of the proteins cited; added tags and fusions are not shown. Lines headed by an entry give the natural chain unless they say otherwise; changes in a name come on top.
# UniProt Q9BRK4: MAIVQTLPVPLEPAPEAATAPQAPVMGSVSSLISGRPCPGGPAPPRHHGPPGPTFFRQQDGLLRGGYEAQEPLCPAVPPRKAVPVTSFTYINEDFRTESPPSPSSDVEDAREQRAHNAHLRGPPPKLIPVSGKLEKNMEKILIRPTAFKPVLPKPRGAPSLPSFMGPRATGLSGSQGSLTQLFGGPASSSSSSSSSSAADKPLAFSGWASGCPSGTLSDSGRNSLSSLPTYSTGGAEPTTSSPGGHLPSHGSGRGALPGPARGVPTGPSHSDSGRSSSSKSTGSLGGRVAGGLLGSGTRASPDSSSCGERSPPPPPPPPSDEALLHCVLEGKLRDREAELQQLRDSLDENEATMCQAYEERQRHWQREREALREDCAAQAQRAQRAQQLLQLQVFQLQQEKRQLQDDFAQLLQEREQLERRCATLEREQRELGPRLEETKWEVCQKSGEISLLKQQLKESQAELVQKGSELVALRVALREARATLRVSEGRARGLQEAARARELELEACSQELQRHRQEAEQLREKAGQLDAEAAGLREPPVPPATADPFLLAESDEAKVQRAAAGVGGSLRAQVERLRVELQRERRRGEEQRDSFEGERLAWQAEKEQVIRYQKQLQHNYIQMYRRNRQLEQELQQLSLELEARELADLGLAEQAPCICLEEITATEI
# UniProt Q9Y5V3: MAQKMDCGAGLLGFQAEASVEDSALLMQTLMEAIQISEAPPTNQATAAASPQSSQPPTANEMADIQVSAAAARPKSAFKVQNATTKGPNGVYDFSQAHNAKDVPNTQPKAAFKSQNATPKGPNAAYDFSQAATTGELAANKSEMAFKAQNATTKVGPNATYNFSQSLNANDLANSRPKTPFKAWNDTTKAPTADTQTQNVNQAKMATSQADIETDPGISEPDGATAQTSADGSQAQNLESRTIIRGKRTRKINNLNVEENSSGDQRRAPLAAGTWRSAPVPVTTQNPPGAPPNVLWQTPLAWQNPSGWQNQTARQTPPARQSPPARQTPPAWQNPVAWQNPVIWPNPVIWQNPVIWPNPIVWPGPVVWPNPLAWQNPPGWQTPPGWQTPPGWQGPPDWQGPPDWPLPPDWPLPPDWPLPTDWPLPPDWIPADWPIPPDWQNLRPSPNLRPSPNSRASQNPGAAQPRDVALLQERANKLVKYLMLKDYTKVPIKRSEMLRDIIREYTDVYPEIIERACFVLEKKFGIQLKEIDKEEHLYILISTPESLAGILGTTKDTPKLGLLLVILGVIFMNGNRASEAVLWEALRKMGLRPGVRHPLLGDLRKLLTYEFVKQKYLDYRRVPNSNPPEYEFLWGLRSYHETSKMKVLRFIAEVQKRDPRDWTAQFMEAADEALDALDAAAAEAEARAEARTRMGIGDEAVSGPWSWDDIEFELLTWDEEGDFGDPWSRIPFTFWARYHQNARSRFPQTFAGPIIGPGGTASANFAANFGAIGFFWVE
# UniProt O60307: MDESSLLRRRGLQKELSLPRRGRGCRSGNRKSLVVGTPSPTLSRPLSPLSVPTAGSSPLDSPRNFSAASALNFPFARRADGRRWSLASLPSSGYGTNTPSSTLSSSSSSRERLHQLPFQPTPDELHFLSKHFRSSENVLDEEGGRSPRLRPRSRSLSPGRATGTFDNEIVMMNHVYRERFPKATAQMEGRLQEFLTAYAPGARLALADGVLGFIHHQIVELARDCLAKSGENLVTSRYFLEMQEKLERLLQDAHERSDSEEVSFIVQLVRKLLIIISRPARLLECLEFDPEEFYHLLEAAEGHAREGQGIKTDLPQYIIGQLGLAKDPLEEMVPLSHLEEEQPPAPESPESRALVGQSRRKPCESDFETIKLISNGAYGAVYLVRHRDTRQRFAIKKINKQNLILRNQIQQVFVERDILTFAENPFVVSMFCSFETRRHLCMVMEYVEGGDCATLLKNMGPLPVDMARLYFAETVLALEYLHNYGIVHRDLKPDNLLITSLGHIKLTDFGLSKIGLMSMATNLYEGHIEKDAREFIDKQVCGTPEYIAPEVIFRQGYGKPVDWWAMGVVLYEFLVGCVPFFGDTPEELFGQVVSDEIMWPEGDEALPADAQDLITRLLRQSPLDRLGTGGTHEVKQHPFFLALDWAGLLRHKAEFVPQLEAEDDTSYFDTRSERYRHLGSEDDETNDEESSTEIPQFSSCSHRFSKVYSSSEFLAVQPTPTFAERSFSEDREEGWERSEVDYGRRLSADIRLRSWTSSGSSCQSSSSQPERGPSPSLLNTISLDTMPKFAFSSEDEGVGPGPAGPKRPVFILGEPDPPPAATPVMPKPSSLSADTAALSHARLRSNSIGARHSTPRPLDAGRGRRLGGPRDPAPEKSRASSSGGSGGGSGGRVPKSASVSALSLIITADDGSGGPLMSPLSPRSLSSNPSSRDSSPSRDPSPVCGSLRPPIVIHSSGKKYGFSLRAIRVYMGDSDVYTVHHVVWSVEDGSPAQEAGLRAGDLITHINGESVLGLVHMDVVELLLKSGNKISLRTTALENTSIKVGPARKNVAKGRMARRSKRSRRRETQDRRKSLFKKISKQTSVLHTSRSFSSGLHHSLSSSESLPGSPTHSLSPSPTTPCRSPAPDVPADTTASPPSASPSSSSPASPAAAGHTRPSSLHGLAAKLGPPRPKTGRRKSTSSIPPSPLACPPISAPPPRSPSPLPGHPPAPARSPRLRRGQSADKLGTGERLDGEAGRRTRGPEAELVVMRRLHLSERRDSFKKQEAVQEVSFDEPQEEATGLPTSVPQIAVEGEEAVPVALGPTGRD
# UniProt Q9ULX9: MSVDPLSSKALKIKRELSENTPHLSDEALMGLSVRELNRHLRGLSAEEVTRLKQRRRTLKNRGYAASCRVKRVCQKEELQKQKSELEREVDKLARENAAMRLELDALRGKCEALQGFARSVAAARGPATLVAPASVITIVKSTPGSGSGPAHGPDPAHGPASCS
# UniProt Q12851: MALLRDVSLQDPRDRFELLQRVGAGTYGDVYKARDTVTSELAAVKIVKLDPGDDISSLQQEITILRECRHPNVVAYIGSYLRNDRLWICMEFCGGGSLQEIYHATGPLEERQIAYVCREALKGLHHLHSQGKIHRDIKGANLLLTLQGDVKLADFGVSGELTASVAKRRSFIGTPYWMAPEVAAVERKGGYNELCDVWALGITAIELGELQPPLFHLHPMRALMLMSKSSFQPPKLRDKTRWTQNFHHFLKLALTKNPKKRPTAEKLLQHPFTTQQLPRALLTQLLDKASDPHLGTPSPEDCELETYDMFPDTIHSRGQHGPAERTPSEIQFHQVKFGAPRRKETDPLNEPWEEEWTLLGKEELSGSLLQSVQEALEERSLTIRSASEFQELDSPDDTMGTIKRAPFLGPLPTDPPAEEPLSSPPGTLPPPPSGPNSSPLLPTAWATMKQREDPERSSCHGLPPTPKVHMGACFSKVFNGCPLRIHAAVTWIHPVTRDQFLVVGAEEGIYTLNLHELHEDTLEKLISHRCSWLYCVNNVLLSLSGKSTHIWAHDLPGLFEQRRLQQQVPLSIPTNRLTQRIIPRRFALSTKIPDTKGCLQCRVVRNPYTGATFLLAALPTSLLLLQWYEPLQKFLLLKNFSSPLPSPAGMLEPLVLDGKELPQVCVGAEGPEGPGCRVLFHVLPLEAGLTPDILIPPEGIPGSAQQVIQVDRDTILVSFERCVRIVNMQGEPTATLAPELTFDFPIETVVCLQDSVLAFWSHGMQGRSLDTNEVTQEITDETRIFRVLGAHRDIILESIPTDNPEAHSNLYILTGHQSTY
# UniProt P20645: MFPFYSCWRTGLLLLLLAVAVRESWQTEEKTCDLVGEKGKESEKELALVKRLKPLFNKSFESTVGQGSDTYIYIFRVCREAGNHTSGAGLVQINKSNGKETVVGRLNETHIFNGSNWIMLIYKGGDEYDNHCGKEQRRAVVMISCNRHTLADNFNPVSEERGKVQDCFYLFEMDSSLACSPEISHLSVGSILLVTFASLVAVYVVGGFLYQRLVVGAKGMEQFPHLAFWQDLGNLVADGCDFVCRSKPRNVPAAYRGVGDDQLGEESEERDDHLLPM
# UniProt Q8N5G2: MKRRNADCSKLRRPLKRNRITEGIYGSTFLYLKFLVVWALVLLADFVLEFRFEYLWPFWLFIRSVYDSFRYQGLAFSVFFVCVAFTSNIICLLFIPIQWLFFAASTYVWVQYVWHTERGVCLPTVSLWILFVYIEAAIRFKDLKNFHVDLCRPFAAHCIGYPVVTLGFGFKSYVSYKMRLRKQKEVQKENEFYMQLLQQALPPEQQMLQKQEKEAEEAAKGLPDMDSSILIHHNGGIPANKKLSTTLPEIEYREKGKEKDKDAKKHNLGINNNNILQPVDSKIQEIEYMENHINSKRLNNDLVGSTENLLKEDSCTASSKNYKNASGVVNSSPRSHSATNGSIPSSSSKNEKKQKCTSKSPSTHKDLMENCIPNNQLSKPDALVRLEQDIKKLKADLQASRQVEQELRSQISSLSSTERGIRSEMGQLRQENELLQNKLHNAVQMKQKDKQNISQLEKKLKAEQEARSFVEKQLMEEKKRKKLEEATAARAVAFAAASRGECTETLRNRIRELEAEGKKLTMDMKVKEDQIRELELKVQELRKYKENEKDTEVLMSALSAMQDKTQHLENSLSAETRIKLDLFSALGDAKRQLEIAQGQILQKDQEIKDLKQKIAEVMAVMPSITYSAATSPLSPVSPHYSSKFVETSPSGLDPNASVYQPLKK
# UniProt Q9NQG1: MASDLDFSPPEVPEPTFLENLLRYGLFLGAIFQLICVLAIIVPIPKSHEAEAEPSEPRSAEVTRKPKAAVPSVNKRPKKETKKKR
# UniProt Q6P0Q8: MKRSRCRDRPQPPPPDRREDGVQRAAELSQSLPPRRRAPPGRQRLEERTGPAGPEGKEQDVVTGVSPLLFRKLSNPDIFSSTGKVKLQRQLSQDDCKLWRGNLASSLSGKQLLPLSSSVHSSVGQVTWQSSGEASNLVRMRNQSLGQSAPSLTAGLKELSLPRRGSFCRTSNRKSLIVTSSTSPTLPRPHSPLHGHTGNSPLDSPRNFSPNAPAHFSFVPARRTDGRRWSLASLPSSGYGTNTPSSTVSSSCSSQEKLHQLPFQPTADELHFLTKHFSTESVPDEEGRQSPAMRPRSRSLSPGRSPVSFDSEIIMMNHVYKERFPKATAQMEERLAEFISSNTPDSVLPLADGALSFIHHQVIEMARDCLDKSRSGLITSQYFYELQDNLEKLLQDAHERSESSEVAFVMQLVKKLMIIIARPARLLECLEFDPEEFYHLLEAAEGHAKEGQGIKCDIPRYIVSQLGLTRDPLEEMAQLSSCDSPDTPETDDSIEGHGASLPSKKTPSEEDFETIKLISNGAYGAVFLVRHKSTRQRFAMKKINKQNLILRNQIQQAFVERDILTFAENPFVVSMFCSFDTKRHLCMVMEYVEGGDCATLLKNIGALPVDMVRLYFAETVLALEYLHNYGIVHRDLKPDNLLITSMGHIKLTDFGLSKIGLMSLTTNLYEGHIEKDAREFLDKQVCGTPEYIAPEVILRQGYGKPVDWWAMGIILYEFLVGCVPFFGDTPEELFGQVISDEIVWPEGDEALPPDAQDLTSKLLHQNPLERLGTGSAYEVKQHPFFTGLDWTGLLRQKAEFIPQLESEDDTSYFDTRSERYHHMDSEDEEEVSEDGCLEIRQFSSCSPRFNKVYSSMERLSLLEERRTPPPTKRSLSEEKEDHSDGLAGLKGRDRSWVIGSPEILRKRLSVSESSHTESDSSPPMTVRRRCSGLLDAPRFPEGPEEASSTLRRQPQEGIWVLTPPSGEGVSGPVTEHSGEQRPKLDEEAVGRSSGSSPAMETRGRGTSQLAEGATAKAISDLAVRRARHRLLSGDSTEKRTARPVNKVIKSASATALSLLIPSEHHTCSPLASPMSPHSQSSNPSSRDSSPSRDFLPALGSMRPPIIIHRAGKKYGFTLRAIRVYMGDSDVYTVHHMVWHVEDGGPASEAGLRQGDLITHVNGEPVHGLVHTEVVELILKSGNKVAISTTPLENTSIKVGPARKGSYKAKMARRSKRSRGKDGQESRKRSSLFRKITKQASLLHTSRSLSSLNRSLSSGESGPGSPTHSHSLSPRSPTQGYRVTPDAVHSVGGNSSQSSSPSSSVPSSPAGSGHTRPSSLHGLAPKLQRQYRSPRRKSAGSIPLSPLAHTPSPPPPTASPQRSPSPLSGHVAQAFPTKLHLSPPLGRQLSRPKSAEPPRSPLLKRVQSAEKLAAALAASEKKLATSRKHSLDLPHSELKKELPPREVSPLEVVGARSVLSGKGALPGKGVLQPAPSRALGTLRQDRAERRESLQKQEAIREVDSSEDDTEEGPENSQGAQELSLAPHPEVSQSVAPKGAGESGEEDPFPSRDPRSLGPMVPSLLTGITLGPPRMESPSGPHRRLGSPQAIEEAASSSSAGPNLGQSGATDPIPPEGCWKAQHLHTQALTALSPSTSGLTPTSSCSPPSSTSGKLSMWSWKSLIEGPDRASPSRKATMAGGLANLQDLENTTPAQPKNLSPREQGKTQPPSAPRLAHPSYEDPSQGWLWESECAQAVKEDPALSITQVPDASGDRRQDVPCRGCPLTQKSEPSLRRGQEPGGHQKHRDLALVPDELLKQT
# Some of the results follow.
# Legend:
# Experiment in all cases: log2 fold change, soluble protein after heating vs DMSO (PISA); higher = thermal stabilisation; K562 lysate, 10 uM; active = over 0.2 and 3.5 SD of the protein, either way, in both replicates (recomputed)
# [1] = compound: CS(=O)(=O)CCNCc1ccc(-c2ccc3ncnc(Nc4ccc(OCc5cccc(F)c5)c(Cl)c4)c3c2)o1 [lapatinib]
# Summary of the method: (§1)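 To prepare the extract, K562 pellets were dounce-homogenised in PBS pH 7.4 with 1 mM MgCl2, giving crude material at 1 mg/mL protein. This was treated with 10 μM compound for 30 min, then heated in aliquots for 3 min over 48°C-58°C before pooling and addition of NP-40 to 0.5% at 4°C. Centrifugation at 21,000xg for 90 min left soluble protein in the supernatant, which TMTpro 16plex LC-MS/MS quantified with equalised channel sums. Results are log-two fold changes in thermal stability compared with solvent controls, from duplicates.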
# [2] = compound: CS(=O)(=O)N1CCN(Cc2cc3nc(-c4cccc5[nH]ncc45)nc(N4CCOCC4)c3s2)CC1 [pictilisib]
# Summary of the method: as §1
# [3] = compound: C[C@@H](Oc1cc(-c2cnn(C3CCNCC3)c2)cnc1N)c1c(Cl)ccc(F)c1Cl [crizotinib]
# Summary of the method: as §1
# [4] = compound: C[C@H](Nc1ncnc2nc[nH]c12)c1cc2cccc(Cl)c2c(=O)n1-c1ccccc1 [duvelisib]
# Summary of the method: as §1
# [5] = compound: Cc1cc(Nc2cc(N3CCN(C)CC3)nc(Sc3ccc(NC(=O)C4CC4)cc3)n2)n[nH]1 [tozasertib]
# Summary of the method: as §1
# [6] = compound: Cc1ccc(-n2nc(C(C)(C)C)cc2NC(=O)Nc2ccc(OCCN3CCOCC3)c3ccccc23)cc1 [doramapimod]
# Summary of the method: as §1
# [7] = compound: Cc1ccc(NC(=O)c2ccc(CN3CC[C@H](N(C)C)C3)c(C(F)(F)F)c2)cc1Nc1nccc(-c2cncnc2)n1 [bafetinib]
# Summary of the method: as §1
# [8] = compound: Cc1cn(-c2cc(NC(=O)c3ccc(C)c(Nc4nccc(-c5cccnc5)n4)c3)cc(C(F)(F)F)c2)cn1 [nilotinib]
# Summary of the method: as §1
# [9] = compound: Cc1nc(Nc2n[nH]c3c2CN(C(=O)N[C@H](CN(C)C)c2ccccc2)C3(C)C)c2sccc2n1
# Summary of the method: as §1
# [10] = compound: Cc1nc(Nc2ncc(C(=O)Nc3c(C)cccc3Cl)s2)cc(N2CCN(CCO)CC2)n1 [dasatinib]
# Summary of the method: as §1
# [11] = compound: Cc1ncc(-c2ccnc(Nc3ccc(S(C)(=O)=O)cc3)n2)n1C(C)C
# Summary of the method: as §1
# [12] = compound: Cn1cc(-c2ccc3c(c2)CCN3C(=O)Cc2cccc(C(F)(F)F)c2)c2c(N)ncnc21
# Summary of the method: as §1
# [13] = compound: Cn1cc(CNCC2CCN(c3ncc(C(=O)NO)cn3)CC2)c2ccccc21 [quisinostat]
# Summary of the method: as §1
# [14] = compound: Cn1cncc1[C@@](N)(c1ccc(Cl)cc1)c1ccc2c(c1)c(-c1cccc(Cl)c1)cc(=O)n2C [tipifarnib]
# Summary of the method: as §1
# [15] = compound: NC(=O)Nc1cc(-c2cccc(F)c2)sc1C(=O)N[C@H]1CCCNC1
# Summary of the method: as §1
# [16] = compound: NC(=O)c1cnc(N[C@@H]2CCCC[C@@H]2N)nc1Nc1cccc(-n2nccn2)c1
# Summary of the method: as §1
# [17] = compound: NC1(c2ccc(-c3nc4ccn5c(=O)[nH]nc5c4cc3-c3ccccc3)cc2)CCC1
# Summary of the method: as §1
# [18] = compound: C[C@H](C1=CC=C(C=C1)C(=O)NC2=C3C=CNC3=NC=C2)N
# Summary of the method: as §1
# [19] = compound: Cc1cc(Nc2cc(CN3CCOCC3)c3nc(C)c(Cc4ccc(Cl)cc4F)n3n2)n[nH]1 [gandotinib]
# Summary of the method: as §1
# [20] = compound: Cc1cccc(CC(=O)N2CCc3c2ccc(-c2cn(C)c4ncnc(N)c24)c3F)n1
# Summary of the method: as §1
Target,log2 fold change [1],log2 fold change [2],log2 fold change [3],log2 fold change [4],log2 fold change [5],log2 fold change [6],log2 fold change [7],log2 fold change [8],log2 fold change [9],log2 fold change [10],log2 fold change [11],log2 fold change [12],log2 fold change [13],log2 fold change [14],log2 fold change [15],log2 fold change [16],log2 fold change [17],log2 fold change [18],log2 fold change [19],log2 fold change [20]
LZTS2 (UniProt Q9BRK4),inactive: -0.06,inactive: 0.051,inactive: -0.015,inactive: -0.019,inactive: 0.127,inactive: 0.038,inactive: -0.119,inactive: 0.026,inactive: -0.075,inactive: 0.007,inactive: 0.062,inactive: -0.03,inactive: 0.006,inactive: -0.06,inactive: -0.014,inactive: 0.093,inactive: 0.062,,,
LTN1 isoform 3 (UniProt O94822),inactive: 0.086,inactive: -0.017,inactive: -0.046,inactive: -0.029,inactive: 0.003,inactive: 0.009,inactive: -0.071,inactive: 0.006,inactive: -0.007,inactive: -0.086,inactive: -0.009,inactive: 0.014,inactive: -0.023,inactive: -0.002,inactive: 0.044,inactive: -0.016,inactive: -0.027,inactive: 0.027,inactive: -0.18,inactive: 0.007
MAP2K4 isoform 2 (UniProt P45985),inactive: -0.036,inactive: -0.077,inactive: -0.086,inactive: -0.012,inactive: -0.087,inactive: -0.032,inactive: -0.05,inactive: -0.013,inactive: 0.052,inactive: -0.014,inactive: 0.248,inactive: 0.046,inactive: -0.112,inactive: -0.023,inactive: 0.019,inactive: 0.063,inactive: 0,active: 0.619,inactive: -0.031,inactive: -0.059
MAGED1 isoform 2 (UniProt Q9Y5V3),inactive: 0.055,inactive: -0.038,inactive: 0.021,,,inactive: -0.006,inactive: -0.058,inactive: 0.018,inactive: 0.055,,inactive: -0.062,,inactive: -0.076,inactive: 0.146,inactive: 0.019,inactive: 0.085,inactive: -0.044,inactive: 0.047,inactive: 0.218,inactive: -0.145
MAST3 (UniProt O60307),inactive: -0.066,,,inactive: -0.017,inactive: 0.011,,,,,inactive: 0.081,,inactive: 0.014,,,,inactive: -0.023,inactive: -0.025,,,
MAFF (UniProt Q9ULX9),inactive: -0.08,,inactive: 0.031,,inactive: -0.132,inactive: 0.147,,,,,,,inactive: -0.022,,inactive: -0.03,inactive: 0.117,inactive: 0.135,inactive: 0.078,inactive: -0.007,inactive: -0.026
MAP4K2 (UniProt Q12851),inactive: -0.164,inactive: 0.126,,inactive: 0.077,inactive: 0.054,inactive: 0.035,inactive: -0.126,,,inactive: 0.511,,inactive: 0.123,inactive: -0.193,,active: 0.965,inactive: 0.159,inactive: -0.062,inactive: 0.145,inactive: 0.273,inactive: -0.015
MAP2K2 (UniProt P36507),inactive: -0.048,inactive: 0.015,inactive: 0.039,inactive: 0.012,inactive: 0.282,inactive: -0.058,inactive: -0.063,inactive: -0.03,inactive: 0.205,active: 0.445,inactive: 0.065,inactive: -0.031,inactive: 0,inactive: -0.006,active: 0.495,inactive: 0.033,inactive: -0.002,inactive: 0.207,inactive: -0.065,inactive: -0.015
M6PR (UniProt P20645),inactive: 0.005,inactive: 0.063,inactive: 0.012,inactive: 0.047,inactive: -0.036,inactive: -0.03,inactive: 0.177,inactive: -0.054,inactive: 0.069,inactive: 0.009,inactive: -0.029,inactive: 0.016,inactive: 0.003,inactive: -0.041,inactive: 0.009,inactive: 0.042,inactive: 0.03,inactive: -0.031,inactive: 0.018,inactive: 0.008
MACO1 (UniProt Q8N5G2),inactive: 0.016,inactive: 0.041,inactive: 0.003,inactive: 0.015,inactive: 0.138,inactive: -0.035,inactive: -0.001,inactive: -0.003,inactive: 0.017,inactive: -0.092,inactive: 0.066,inactive: 0.004,inactive: 0.042,inactive: 0.042,inactive: 0.033,inactive: -0.02,inactive: 0.054,inactive: -0.019,inactive: -0.008,inactive: -0.001
MANBAL (UniProt Q9NQG1),inactive: -0.009,inactive: -0.019,,,inactive: 0.067,,inactive: 0.059,,,,,,,,,inactive: -0.044,inactive: -0.068,inactive: -0.044,inactive: 0.008,inactive: 0.062
MAST2 (UniProt Q6P0Q8),inactive: 0.012,inactive: 0.161,inactive: -0.004,inactive: -0.065,inactive: 0.148,inactive: -0.034,inactive: -0.289,,,inactive: 0.049,,inactive: 0.044,inactive: -0.024,,inactive: 0.047,inactive: -0.005,inactive: -0.036,inactive: -0.171,inactive: -0.07,inactive: -0.092

# A second format for some results above:
Target | log2 fold change [1] | log2 fold change [2] | log2 fold change [3] | log2 fold change [4] | log2 fold change [5] | log2 fold change [6] | log2 fold change [7] | log2 fold change [8] | log2 fold change [9] | log2 fold change [10] | log2 fold change [11] | log2 fold change [12] | log2 fold change [13] | log2 fold change [14] | log2 fold change [15] | log2 fold change [16] | log2 fold change [17] | log2 fold change [18] | log2 fold change [19] | log2 fold change [20]
MAP2K2 (UniProt P36507) | inactive: -0.048 | inactive: 0.015 | inactive: 0.039 | inactive: 0.012 | inactive: 0.282 | inactive: -0.058 | inactive: -0.063 | inactive: -0.03 | inactive: 0.205 | active: 0.445 | inactive: 0.065 | inactive: -0.031 | inactive: 0 | inactive: -0.006 | active: 0.495 | inactive: 0.033 | inactive: -0.002 | inactive: 0.207 | inactive: -0.065 | inactive: -0.015
M6PR (UniProt P20645) | inactive: 0.005 | inactive: 0.063 | inactive: 0.012 | inactive: 0.047 | inactive: -0.036 | inactive: -0.03 | inactive: 0.177 | inactive: -0.054 | inactive: 0.069 | inactive: 0.009 | inactive: -0.029 | inactive: 0.016 | inactive: 0.003 | inactive: -0.041 | inactive: 0.009 | inactive: 0.042 | inactive: 0.03 | inactive: -0.031 | inactive: 0.018 | inactive: 0.008
